Experiment [1] has as its target membrane-associated human TL1A on transfected HEK293 cells (human) (UniProt O95150). The experiment in a line: flow cytometry, HEK293 cells expressing human TL1A, Fab. For orientation: In flow cytometry, cells or beads pass a laser one at a time.
Experiment [2] concerns the target T1, human TL1A (Fitzgerald, Prod. #30R-AT070) (human) (UniProt O95150).
T1 sequence (biotinylated with EZ-Link Sulfo-NHS-LC-Biotin where used as soluble antigen, looked up): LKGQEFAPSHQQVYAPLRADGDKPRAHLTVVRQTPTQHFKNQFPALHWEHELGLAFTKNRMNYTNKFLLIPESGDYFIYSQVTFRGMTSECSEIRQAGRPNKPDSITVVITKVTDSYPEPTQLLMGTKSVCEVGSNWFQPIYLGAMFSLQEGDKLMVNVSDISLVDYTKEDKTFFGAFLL
The experiment in a line: ELISA, both formats (immobilised TL1A; captured Fab with soluble biotinylated TL1A). (In an ELISA, binding on a coated surface is turned into a signal by an enzyme label.)

Experiment [3] addresses T1, human TL1A (Fitzgerald, Prod. #30R-AT070) (human). Description: capture lift screen and Fab ELISA on immobilised antigen.
Experiment [4] has the same target. The experiment in a line: ELISA, captured Fab, soluble biotinylated antigen.
The target is the same in experiment [5]. Description: ELISA.
The target is the same in experiment [6]. Description: Fab ELISA on immobilised antigen.
The target is the same in experiment [7]. Description: ELISA, coated human TL1A, Fab titrated.
Experiment [8] has the same target. Description: ELISA, IgG format.
In experiment [9] the target is T2, TL1A used in the epitope binning studies (UniProt O95150).
T2 sequence (looked up): T1 sequence (biotinylated with EZ-Link Sulfo-NHS-LC-Biotin where used as soluble antigen, looked up)
The experiment in a line: SPR array epitope binning, pre-mix.

For experiment [10], the target named is T1, human TL1A (Fitzgerald, Prod. #30R-AT070) (human). Description: capture filter lift assay.
Experiment [11] has the same target. The experiment in a line: filter lift assay.
The target is the same in experiment [12]. Description: capture lift assay, biotinylated antigen.
The target is the same in experiment [13]. The experiment in a line: filter lift assay, 8 nM biotinylated human TL1A.

Changes are numbered by the printed parent chain. No constants are given. Whether binding was seen depends on the method and setting. Some results given as binding are weak or reduced against the parent protein; the word gives no strength.

B1: Clone X Fab (Fab, V domains shown)
VH: QVQLVQSGAEVKKPGASVKVSCKASGFDIQDTYMHWVRQAPGQGLEWMGRIDPASGHTKYDPKFQGRATITTDTSASTAYLQLSSLRSEDTAVYYCARSGGLPDFWGQGTTVTVSS
VL: EIVLTQSPGTLSLSPGERATLSCRASSSVSYMYWYQQKPGQAPRLLIYATSNLASGIPDRFSGSGSGTDFTLTISRLEPEDFAVYYCQQWSGNPRTFGGGTKLEIK
Take B1: the binding entry in experiment [1] and in experiment [2] was “binds” throughout.

B2: 18-7 (CDR-grafted LC) Fab (Fab, V domains shown)
VH: QVQLVQSGAEVKKPGASVKLSCKASGFDIQDTYMHWVRQAPGQGLEWMGRIDPASGHTKYDPKFQVRVTMTRDTSTSTVYMELSSLRSEDTAVYYCSRSGGLPDVWGQGTTVTVSS
VL: B1 VL
Turning to B2, the binding entry in [3], in experiment [4] and in experiment [5] was “binds” in each case.

B3: L8 (CDR graft) Fab (Fab, V domains shown)
VH: B2 VH with L20V, S97A
VL: B1 VL
Take B3: the binding result in [6], in [4] and in experiment [5] was “binds” throughout.

B4: 21-3 (CDR-grafted HC) Fab (Fab, V domains shown)
VH: B2 VH with L20V, S97A
VL: B1 VL with I57V, F70Y
Turning to B4, the binding result in [3], in experiment [4] and in [5] was “binds” throughout.

B5: humanized 12835 Fab (Fab, V domains shown)
VH: B2 VH with R72T
VL: B1 VL with A19V, L21M, L45P, L46W, I57V, F70Y
B5: the binding result in experiment [6], in experiment [3], in experiment [4], in [7] and in experiment [5] was “binds” in each case.

B6: humanized 12835 antibody (antibody, V domains shown)
VH: B2 VH with R72T
VL: B1 VL with A19V, L21M, L45P, L46W, I57V, F70Y
For the molecule B6, the binding result in [8] and in [9] was “binds” in each case.

B7: 1A9 (antibody, V domains shown)
VH: QIQLVQSGPELKKPGETVKISCKASGYTFTTYGMSWVKQAPGKGLKWMGWMNTYSGVTTYADDFKGRFAFSLETSASTAYMQIDNLKNEDTATYFCAREGYVFDDYYATDYWGQGTSVTVSS
VL: DVLMTQTPLSLPVSLGDQASISCRSSQNIVHSDGNTYLEWYLQKPGQSPKLLIYKVSNRFSGVPDRFSGSGSGTDFTLKISRVEAEDLGIYYCFQGSHVPLTFGAGTKLELK
For the molecule B7, in [9], the binding entry is given as “binds”.

B8: chimeric 5C3D11 Fab (Fab, V domains shown)
VH: EVQLQQSGAELVKPGASVKLSCTASGFDIQDTYMHWVKQRPEQGLEWIGRIDPASGHTKYDPKFQVKATITTDTSSNTAYLQLSSLTSEDTAVYYCSRSGGLPDVWGAGTTVTVSS
VL: QIVLSQSPAILSASPGEKVTMTCRASSSVSYMYWYQQKPGSSPKPWIYATSNLASGVPDRFSGSGSGTSYSLTISRVEAEDAATYYCQQWSGNPRTFGGGTKLEIK
Regarding B8, the binding result in experiment [10], in experiment [11], in experiment [4], in experiment [12], in experiment [5] and in experiment [13] was “binds” throughout.

B9: murine mAb 5C3D11 (antibody, V domains shown)
VH: B8 VH
VL: B8 VL
Regarding B9, the binding result in experiment [8] and in experiment [9] was “binds” in each case.

B10: 1681 (antibody, V domains shown)
VH: EVQLLESGGGLVQPGKSLRLSCAVSGFTFSTYGMNWVRQAPGKGLEWVSSISGTGRTTYHADSVQGRFTVSRDNSKNILYLQMNSLRADDTAVYFCTKERGDYYYGVFDYWGQGTLVTVSS
VL: DIQMTQSPSTLSASVGDRVTITCRASQTISSWLAWYQQTPEKAPKLLIYAASNLQSGVPSRFSGSGSGTEFTLTISSLQPDDFATYYCQQYHRSWTFGQGTKVEIT
Take B10: the binding result in experiment [9] is recorded as “binds”.

(Values after patent US20230192835A1.)
